“Also recorded” adds a separate entry of the source. At least one compound was matched to its structure with a doubt left.
Target: T1, DNA-PKcs T2609 phosphorylation in HeLa cells (Homo sapiens, UniProt P78527)
T1 construct: Treatment of HeLa cells with 20 μm wortmannin; endogenous in cells; host or cells: HeLa
Assay: Western blot of IR-induced DNA-PKcs phosphorylation in cells treated with wortmannin
Assay type: cell-based

Protein sequences, listed by entry. Tags and fused reporters are not part of them.
UniProt P78527, whole entry: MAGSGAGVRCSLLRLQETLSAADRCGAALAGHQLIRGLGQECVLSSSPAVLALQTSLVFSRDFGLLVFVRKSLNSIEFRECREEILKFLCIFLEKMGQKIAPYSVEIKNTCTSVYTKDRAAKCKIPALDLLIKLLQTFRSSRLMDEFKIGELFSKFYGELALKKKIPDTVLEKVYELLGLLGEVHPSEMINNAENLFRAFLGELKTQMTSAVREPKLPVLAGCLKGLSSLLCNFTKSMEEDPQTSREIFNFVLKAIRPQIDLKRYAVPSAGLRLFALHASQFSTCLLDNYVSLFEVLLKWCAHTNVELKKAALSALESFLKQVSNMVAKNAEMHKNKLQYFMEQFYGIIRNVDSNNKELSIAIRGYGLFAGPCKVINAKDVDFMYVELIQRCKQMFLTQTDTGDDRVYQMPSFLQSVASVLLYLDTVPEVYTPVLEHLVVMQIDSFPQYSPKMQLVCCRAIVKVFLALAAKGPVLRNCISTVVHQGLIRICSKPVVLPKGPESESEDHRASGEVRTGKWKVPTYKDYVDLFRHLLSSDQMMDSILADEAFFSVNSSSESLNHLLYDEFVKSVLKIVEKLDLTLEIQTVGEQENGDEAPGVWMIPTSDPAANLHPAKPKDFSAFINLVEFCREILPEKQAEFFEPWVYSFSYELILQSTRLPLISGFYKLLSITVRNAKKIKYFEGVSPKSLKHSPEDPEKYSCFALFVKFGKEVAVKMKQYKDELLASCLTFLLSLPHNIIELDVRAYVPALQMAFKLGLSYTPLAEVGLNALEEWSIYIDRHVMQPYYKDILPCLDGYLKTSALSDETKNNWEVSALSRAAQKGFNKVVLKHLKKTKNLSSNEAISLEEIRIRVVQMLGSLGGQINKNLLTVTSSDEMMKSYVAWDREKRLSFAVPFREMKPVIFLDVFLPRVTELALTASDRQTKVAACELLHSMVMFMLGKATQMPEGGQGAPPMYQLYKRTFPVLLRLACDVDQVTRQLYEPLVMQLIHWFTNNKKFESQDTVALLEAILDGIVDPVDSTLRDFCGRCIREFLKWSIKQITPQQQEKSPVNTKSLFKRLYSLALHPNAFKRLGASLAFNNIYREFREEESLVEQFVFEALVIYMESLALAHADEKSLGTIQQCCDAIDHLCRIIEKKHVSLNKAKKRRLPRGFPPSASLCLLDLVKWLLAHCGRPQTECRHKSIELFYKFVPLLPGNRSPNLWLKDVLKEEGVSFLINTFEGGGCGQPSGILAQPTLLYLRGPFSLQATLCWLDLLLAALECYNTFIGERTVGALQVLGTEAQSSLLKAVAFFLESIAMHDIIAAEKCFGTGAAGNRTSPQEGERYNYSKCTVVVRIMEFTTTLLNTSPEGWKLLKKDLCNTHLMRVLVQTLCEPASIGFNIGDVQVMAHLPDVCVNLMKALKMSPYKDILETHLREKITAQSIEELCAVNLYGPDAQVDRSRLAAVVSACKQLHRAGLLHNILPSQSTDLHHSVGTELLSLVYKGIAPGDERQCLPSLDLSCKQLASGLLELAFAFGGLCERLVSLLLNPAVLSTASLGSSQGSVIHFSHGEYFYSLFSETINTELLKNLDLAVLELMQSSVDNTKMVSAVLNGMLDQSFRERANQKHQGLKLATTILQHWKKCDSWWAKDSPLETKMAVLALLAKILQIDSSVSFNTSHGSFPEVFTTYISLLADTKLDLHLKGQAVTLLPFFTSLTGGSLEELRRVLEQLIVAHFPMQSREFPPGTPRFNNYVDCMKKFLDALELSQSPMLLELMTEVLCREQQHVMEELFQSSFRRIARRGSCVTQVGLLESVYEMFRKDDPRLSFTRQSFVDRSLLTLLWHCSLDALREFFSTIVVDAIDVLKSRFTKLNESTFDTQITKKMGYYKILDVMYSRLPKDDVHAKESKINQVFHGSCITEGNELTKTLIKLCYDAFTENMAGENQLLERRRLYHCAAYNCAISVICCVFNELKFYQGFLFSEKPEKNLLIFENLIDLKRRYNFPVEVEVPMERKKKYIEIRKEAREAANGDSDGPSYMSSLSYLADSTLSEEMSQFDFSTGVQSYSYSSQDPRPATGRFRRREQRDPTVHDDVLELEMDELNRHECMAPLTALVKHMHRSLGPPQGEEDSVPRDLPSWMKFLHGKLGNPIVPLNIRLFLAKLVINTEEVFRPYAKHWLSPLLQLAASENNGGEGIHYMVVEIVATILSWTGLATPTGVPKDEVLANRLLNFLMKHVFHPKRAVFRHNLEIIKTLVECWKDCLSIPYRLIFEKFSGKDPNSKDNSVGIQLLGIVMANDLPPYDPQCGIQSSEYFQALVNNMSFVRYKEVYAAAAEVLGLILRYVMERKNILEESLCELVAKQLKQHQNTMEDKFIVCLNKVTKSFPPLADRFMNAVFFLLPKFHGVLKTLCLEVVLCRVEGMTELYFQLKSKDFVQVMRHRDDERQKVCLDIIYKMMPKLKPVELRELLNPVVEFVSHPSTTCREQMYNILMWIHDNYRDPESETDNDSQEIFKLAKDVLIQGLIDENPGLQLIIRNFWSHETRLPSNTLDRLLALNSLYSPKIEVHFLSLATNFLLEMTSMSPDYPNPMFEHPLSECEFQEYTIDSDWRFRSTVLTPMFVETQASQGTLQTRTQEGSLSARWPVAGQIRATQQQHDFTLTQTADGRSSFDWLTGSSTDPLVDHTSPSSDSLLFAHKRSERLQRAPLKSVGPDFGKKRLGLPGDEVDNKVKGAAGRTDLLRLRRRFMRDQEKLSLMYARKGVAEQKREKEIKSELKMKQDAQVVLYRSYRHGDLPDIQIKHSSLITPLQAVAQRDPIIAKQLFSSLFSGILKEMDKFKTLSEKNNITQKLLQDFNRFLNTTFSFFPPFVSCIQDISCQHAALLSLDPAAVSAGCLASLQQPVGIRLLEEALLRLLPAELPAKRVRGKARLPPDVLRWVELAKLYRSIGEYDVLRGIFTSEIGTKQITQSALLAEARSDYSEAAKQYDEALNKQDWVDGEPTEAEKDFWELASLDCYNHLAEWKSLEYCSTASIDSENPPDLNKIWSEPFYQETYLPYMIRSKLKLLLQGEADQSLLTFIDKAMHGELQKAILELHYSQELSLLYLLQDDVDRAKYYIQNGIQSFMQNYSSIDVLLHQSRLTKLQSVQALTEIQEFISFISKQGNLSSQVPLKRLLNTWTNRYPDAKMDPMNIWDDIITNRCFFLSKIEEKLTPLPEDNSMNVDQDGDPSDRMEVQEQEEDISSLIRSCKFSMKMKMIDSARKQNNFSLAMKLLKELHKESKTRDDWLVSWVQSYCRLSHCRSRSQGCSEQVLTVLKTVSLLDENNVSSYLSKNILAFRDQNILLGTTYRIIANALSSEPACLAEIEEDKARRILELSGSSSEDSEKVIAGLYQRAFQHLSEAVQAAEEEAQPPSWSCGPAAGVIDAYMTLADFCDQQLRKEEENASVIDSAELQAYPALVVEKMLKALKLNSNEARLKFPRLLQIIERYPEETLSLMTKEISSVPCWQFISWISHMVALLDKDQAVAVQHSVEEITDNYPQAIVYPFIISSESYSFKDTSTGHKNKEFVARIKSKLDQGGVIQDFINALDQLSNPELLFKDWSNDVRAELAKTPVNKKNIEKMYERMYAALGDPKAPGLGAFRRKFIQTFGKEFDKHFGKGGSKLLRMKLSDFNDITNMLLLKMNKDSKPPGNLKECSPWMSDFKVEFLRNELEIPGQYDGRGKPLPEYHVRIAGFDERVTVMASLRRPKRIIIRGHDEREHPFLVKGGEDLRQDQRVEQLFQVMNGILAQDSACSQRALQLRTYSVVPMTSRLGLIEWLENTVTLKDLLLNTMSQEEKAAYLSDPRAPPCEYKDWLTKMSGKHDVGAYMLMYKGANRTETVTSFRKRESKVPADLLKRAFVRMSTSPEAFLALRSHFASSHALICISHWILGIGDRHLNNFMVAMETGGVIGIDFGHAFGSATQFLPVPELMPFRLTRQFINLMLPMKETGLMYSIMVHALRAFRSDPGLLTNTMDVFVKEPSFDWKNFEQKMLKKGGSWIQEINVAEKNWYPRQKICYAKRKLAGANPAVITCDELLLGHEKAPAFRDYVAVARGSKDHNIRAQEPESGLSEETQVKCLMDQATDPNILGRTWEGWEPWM

Structure (SMILES): COC[C@H]1OC(=O)c2coc3c2[C@@]1(C)C1=C(C3=O)[C@@H]2CCC(=O)[C@@]2(C)C[C@H]1OC(C)=O [wortmannin]
- phosphorylation of T2609 in response to DNA damage (Western blot with pT2609pAb) (HeLa cells, 20 μm wortmannin, FIG. 5D): a decrease in the detectable levels of phosphorylated T2609; also recorded: can be inhibited
- inhibition of phosphorylation of T2609 and S2056 (summary statement): inhibit the phosphorylation of T2609 and S2056
